For two molecules, binding results are on record in doi:10.1101/2024.02.05.579050.

Substitutions are numbered along the chain they refer to. Results are given in words; binding and its absence hold for the method and conditions named. In cells and extracts the contact can be indirect. Some entries that bind do so weakly or less than the wild type. Where a sequence is shown, tags or fusion partners need not be part of it.

The target in assay [1] is T1, FLAG-Rad55 (S. cerevisiae) (UniProt P38953).
T1 sequence: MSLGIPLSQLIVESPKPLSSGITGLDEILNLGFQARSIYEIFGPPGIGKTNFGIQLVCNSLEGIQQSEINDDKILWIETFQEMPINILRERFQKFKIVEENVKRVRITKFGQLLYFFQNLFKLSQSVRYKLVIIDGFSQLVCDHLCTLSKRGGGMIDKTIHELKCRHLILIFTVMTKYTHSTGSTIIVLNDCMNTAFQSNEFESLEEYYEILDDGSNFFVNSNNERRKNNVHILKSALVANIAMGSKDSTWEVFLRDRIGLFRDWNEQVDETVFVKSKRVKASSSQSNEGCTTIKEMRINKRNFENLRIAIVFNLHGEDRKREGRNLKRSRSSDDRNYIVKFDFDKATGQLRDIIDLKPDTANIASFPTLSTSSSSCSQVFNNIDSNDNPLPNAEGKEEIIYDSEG
The assay is described as follows: co-IP.

Assay [2] concerns the target T2, FLAG-Rad55-S404A (S. cerevisiae) (UniProt P38953).
T2 sequence: T1 sequence with S404A
The assay can be described thus: co-IP.

B1: Rad57-HA (protein, UniProt P25301 1-460)
chain: MPRALSIKFDNTYMDLYDELPESKLLYDEEFSYLLDAVRQNGVCVVDFLTLTPKELARLIQRSINEVFRFQQLLVHEYNEKYLEICEKNSISPDNGPECFTTADVAMDELLGGGIFTHGITEIFGESSTGKSQLLMQLALSVQLSEPAGGLGGKCVYITTEGDLPTQRLESMLSSRPAYEKLGITQSNIFTVSCNDLINQEHIINVQLPILLERSKGSIKLVIIDSISHHLRVELQNKSFRESQENKNYLDRMAEKLQILAHDYSLSVVVANQVGDKPLANSPVAHRTYVTDYDYQLGWLVGWKNSTILYRQMNSLLGASSNNDEILSDDEDYMLIERVMSTVNDRNYDFFSKKKPPIIENKTVERNSSSPISRQSKKRKFDYRVPNLGLTWSNHVSTRILLQKSFKASTIIQRGEAHLYKGGDSASFWQVKRTMKVVYSTFAKPGQIAYQITKRGIETA
Consider B1, for which the binding entry in assay [1] and in assay [2] was “binds” each time.

B2: Rtt107-VSV (protein, UniProt P38850 1-1070)
chain: MSTSLLFEQLNFLILVAAEAELPIAHSTRKLLMDNSCNNCQIYELYNENLKDVKTDKDWFMNKFGPQTVHFVISNTINFPFYKIVYFDLLIPVVSHTWVQDSVKTKRHLRTNMYSPNPFHLLRDCQVYISKSSFNKCEYILYSDLLHLLGGTLVNYISNRTTHVIVQSPQDPIIATVSKLTFGSFSSSSTNKHTEKPLREWKFVYPIWILYHFKMAKPLKGELATLCELDMQDTSEEQLFAKWEEVIGDKQTSSSQLTLHPNKTLFKNHHFAISPDLNFFTPLYWFLKGFIEDLDGKVTPLSFSDDLKSVYQAFPDIDCYIGHSANSPILEKTKSIKPEIHVGNVSWLFYMFALQKFTPVSQCKLIHQPFHAKLFTSKELTVAYTNYFGSQRFYIQRLVEILGGLSTPELTRKNTHLITKSTIGKKFKVAKKWSLDPQNAIIVTNHMWLEQCYMNNSKLNPKDSRFQNFKLDDNMGWNIGQIGMDHSSLPTPKNLSMVTYDTQSISEKPPPTNDQMDQINDNTNVLSKKDGTPISSFENSIDEKIDKLQKISGEVAVTHSGDLERSFVSRPSRASFPVVDSKKSNLQKKDSNSDISMETEVFCEGHEKREEKEFTKPITEYDAPKKQEIREQSRKKNDIDYKKEEEETELQVQLGQRTKREIKTSKKNEKEKETNECHIEVDQMTNEKQGEESTGKLISTEDVTSKKDTDKFSHLFEGLSDNDDHINDEKPAVNSKYTTPKTSQNITSGVDTPTTAQTQVFMPSSGNSRLAKTQAAKRLHTDIESLNEFQKNFKRKRIDSEEISLSQDVERSNNNKELATKAEKILARFNELPNYDLKAVCTGCFHDGFNEVDIEILNQLGIKIFDNIKETDKLNCIFAPKILRTEKFLKSLSFEPLKFALKPEFIIDLLKQIHSKKDKLSQININLFDYEINGINESIISKTKLPTKVFERANIRCINLVNDIPGGVDTIGSVLKAHGIEKINVLRSKKCTFEDIIPNDVSKQENGGIFKYVLIVTKASQVKKFTKLINDRDKNETILIVEWNWCVESIFHLNVDFTSKKNVLYQKKNN
As to B2, the binding result in assay [1] is listed as “binds”.
